Test results reported in article PMC4401672.
No constants are given. Whether binding was seen depends on the method and setting. Binding seen in cells or lysates may run through a third protein. Some results given as binding are weak or reduced against the parent protein; the word gives no strength. For some assays here: Tags and fused reporters may be left off the sequences shown.

Experiments:
[1] = molecular target: T1, Tag-PDZK1 (TAP tag linked to full-length PDZK1), expressed in primary mouse VSM cells (UniProt Q9JIL4); test: pull-down; primary mouse VSM cells infected with adenovirus for Tag alone or Tag-PDZK1; lysed 60h later (50 mM HEPES-KOH pH 7.5, 100 mM KCl, 0.1% NP-40); IgG-Sepharose 4h at 4°C; immunoblot with anti-Bcr
T1 sequence: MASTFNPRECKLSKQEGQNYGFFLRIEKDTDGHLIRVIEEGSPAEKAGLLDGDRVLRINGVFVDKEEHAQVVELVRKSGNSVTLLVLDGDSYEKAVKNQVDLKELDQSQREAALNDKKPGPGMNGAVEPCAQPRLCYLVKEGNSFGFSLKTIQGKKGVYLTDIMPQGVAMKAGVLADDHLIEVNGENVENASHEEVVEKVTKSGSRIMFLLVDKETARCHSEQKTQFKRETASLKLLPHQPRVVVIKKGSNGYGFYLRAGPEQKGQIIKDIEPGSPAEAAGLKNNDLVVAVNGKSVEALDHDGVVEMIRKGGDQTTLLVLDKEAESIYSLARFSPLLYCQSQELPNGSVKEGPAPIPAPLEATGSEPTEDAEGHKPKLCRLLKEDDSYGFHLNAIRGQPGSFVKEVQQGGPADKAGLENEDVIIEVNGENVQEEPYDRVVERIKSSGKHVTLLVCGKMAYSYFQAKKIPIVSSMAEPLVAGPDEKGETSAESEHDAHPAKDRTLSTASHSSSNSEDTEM

[2] = molecular target: T2, PDZK1, endogenous in primary mouse VSM cells (mouse (endogenous in primary VSM cells)) (UniProt Q9JIL4); test: co-IP; endogenous proteins in primary mouse VSM cell lysate (1% TX-100, 150 mM NaCl, 100 mM Tris-HCl pH 8); IP with anti-Bcr or anti-PDZK1 antibody and Protein A/G agarose, 4°C, 2h; immunoblot for Bcr and PDZK1; PDZK1+/+ and PDZK1-/- cells
T2 sequence: T1 sequence

B1: breakpoint cluster region kinase (Bcr), endogenous in primary mouse VSM cells (protein, UniProt Q6PAJ1 1-1270)
chain: MVDSVGFAEAWRAQFPDSEPPRMELRSVGDIEQELERCKASIRRLEQEVNQERFRMIYLQTLLAKEKKSYDRQRWGFRRAAQPPDGAAEPRASAPRPPPAPADGADPAPVEESEARPDGEGSPSKGRSASARRPAAAASADRDDRGPPTSVAALRSNFEKIRKGPAQPGSADAEKPFYVNVEFHHERGLVKVNDKEVSDRISSLGSQAMQMERKKSQQSAGQGLGEAPRPHYRGRSSESSCGLDGDYEDAELNPRFLKDNLINANGGNRPPWPPLEYQPYQSIYVGGMMVEGEGKSPLLRSQSTSEQEKRLTWPRRSYSPRSFEDSGGGYTPDCSSNENLTSSEEDFSSGQSSRVSPSPTTYRMFRDKSRSPSQNSQQSFDSSSPPTPQCQKRHRQCQVVVSEATIVGVRKTGQIWPSDGDSTFQGEADSSFGTPPGYGCAADQAEEQRRHQDGLPYIDDSPSSSPHLSSKGRGSLASGALDPTKVSELDLEKGLEMRKWVLSGILASEETYLSHLEALLLPMKPLKAAATTSQPVLTSQQIETIFFKVPELYEIHKEFYDGLFPRVQQWSHQQRVGDLFQKLASQLGVYRAFVDNYGVAMETAEKCCQANAQFAEISENLRARSNKDVKDSTTKNSLETLLYKPVDRVTRSTLVLHDLLKHTPSSHPDHSLLQDALRISQNFLSSINEEITPRRQSMTVKKGEHRQLLKDSFMVELVEGARKLRHIFLFTDLLLCTKLKKQSGGKTQQYDCKWYIPLTDLSFQMVDELEALPNIPLVPDEELDALKIKISQIKSDIQREKRANKGSKVMERLRKKLSEQESLLLLMSPSMAFRVHSRNGKSYTFLISSDYERAEWRESIREQQKKCFKSFSLTSVELQMLTNSCVKLQTVHHIPLTINKEDDESPGLYGFLHVIVHSATGFKQSSNLYCTLEVDSFGYFVNKAKTRVYRDTTEPNWNEEFEIELEGSQTLRILCYEKCYNKMKMTKEDGESADKLMGKGQVQLDPQTLQDRDWQRTVIDMNGIEVKLSVKFTSREFSLKRMPSRKQTGVFGVKIAVVTKRERSKVPYIVRQCVEEIERRGMEEVGIYRVSGVATDIQALKAAFDVNNKDVSVMMSEMDVNAIAGTLKLYFRELPEPLFTDEFYPNFAEGIALSDPVAKESCMLNLLLSLPEANLLTFLFLLDHLKRVAEKETVNKMSLHNLATVFGPTLLRPSEKESKLPANPSQPITMTDSWSLEVMSQVQVLLYFLQLEAIPAPDSKRQSILFSTEV
- binding [1]: binds
- binding [2]: binds
